Reference: patent publication US20090281086A1, “2 -OXYHETEROARYLAMIDE DERIVATIVES AS PARP INHIBITORS” (KUDOS PHARMACEUTICALS LIMITED, priority 2006, published 2009)
Some results were stated once for a whole list of compounds, not compound by compound.

Tested on: HeLa cells
Assay: Potentiation Factor (PF50) of MMS growth inhibition, SRB assay
Format: cell-based
Settings: ratio of IC50 of control cell growth to IC50 of cell growth + PARP inhibitor, with MMS, compound at 500 nM

Compound	PF50 at 500 nM
CC(Oc1ccccc1)C(=O)N1CCN(C(=O)c2cc(COc3ccsc3C(N)=O)ccc2F)CC1 (stereo not drawn) [Compound 9]	at least 1.1
CC(Oc1ccsc1C(N)=O)c1ccc(F)c(C(=O)N2CCNCC2)c1 (stereo not drawn) [Compound 22, 3-{1-[4-Fluoro-3-(piperazine-1-carbonyl)-phenyl]-ethoxy}-thiophene-2-carboxylic acid amide]	at least 1.1
CC(Oc1ccsc1C(N)=O)c1ccc(F)c(C(=O)N2CCCNCC2)c1 (stereo not drawn) [Compound 27, 3-{1-[3-([1,4]Diazepane-1-carbonyl)-4-fluoro-phenyl]-ethoxy}-thiophene-2-carboxylic acid amide]	at least 1.1
